According to PubChem BioAssay AID493014 (National Center for Advancing Translational Sciences (NCATS), 2011):
Some of the results follow. Further columns of the screen follow, without active or inactive calls. The list favours compounds with an active or inconclusive main result. Words in brackets tell the shape of the fitted curve; partial curves, single points and poor fits give uncertain potencies.

Test: qHTS Assay to Find Inhibitors of Chronic Active B-Cell Receptor Signaling
Conditions: ABC-DLBCL IkBa-CBG/CBR reporter, luminescence ratio (green luciferase fused to IkBa over red control in TMD8 lymphoma cells), 4 h
Summary of the method: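 Compounds up to 46 uM were incubated four hours with TMD8 cells whose green CBG68 luciferase is fused to IkappaBalpha; red CBR luminescence normalised the signal, and concentration-effect curves were fitted to fusion, red and ratio data.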

[1] = measured here: CBR red luminescence, cell number
[2] = measured here: IkBa-CBG green luminescence

Row | Compound | AC50 [1] | AC50 [2]
1 | CC(=O)N(C1=C(Cl)C(=O)c2ccccc2C1=O)c1ccc(C(=O)O)cc1 | 35.5 µM [falling, single point] | –
2 | CC(=O)Oc1cc(C)cc2oc(=O)cc(-c3ccccc3)c12 | – | 11.2 µM [falling, partial curve, poor fit]
3 | Cc1ccc(C2=NN(C(=S)Nc3ccccc3)C(c3ccco3)C2)cc1 (centres undefined) | 1.12 µM [falling, full curve, poor fit] | –
4 | Cc1ccc(S(=O)(=O)/N=C2/C=C(Sc3ncn[nH]3)C(=O)c3ccccc32)c(C)c1 | 3.26 µM [falling, partial curve, poor fit] | –
5 | CCN(CC)S(=O)(=O)c1cccc(C(=O)N/N=C/c2ccc([N+](=O)[O-])o2)c1 | 14.1 µM [falling, single point] | –
6 | CSc1cccc(NC(=S)N(CCCN2CCCC(C)C2)Cc2cccs2)c1 (centres undefined) | 7.94 µM [falling, partial curve] | –
7 | CCOc1ncccc1C(=O)Nc1ccc(OC)c(S(=O)(=O)N2CCCCC2)c1 | 0.398 µM [falling, full curve, poor fit] | –
8 | CC(CC(=O)C1C(C)C=CCC1(C)C)NNC(N)=O (centres undefined) | 15.8 µM [rising, partial curve, poor fit] | –
9 | O=C(Cc1noc2ccccc12)Nc1ccc(Cl)cc1 | 6.51 µM [rising, single point] | –
10 | COc1cc(OC)c(C(=O)Nc2cccc(C(C)=O)c2)cc1OC | 2.59 µM [rising, single point] | –
11 | COc1ccc(CN(C)S(=O)(=O)c2nnc(NC(=O)c3ccc(C)cc3)s2)cc1OC | 25.1 µM [rising, single point] | –
12 | CN(C)CC(C)(C)CNS(=O)(=O)c1cccc2nsnc12 | 11.6 µM [rising, partial curve, poor fit] | –
13 | O=C(Cn1ncn2c(cc3ccccc32)c1=O)NCCc1cccs1 | 1.78 µM [rising, partial curve, poor fit] | –
14 | NNc1nc2c(-c3cccc(C(F)(F)F)c3)nnn2c2ccccc12 | 22.4 µM [falling, single point] | –
15 | CC[C@@H]1C=C(C)C[C@H](C)C[C@H](OC)[C@H]2O[C@@](O)(C(=O)C(=O)N3CCCC[C@H]3C(=O)O[C@H](/C(C)=C/[C@@H]3CC[C@@H](O)[C@H](OC)C3)[C@H](C)[C@@H](O)CC1=O)[C@H](C)C[C@@H]2OC | 29.1 µM [falling, single point] | –
16 | Cc1ccc(S(=O)(=O)NC(=O)c2ccccc2)cc1C(C)C | 1.12 µM [rising, partial curve, poor fit] | –
17 | COc1cc(NC(C)CCc2ccccc2)cc(OC)c1OC (centres undefined) | 14.1 µM [rising, partial curve, poor fit] | –
18 | Cc1cc(-c2nnnn2-c2cc(Cl)cc(Cl)c2)no1 | 1.58 µM [rising, full curve, poor fit] | –
19 | CCN(CC)C(=O)CSCc1cnn(-c2ccccc2)c1-n1cccc1 | 16.4 µM [falling, partial curve, poor fit] | 7.31 µM [rising, partial curve, poor fit]
20 | Cc1ccc(Cn2ncc3c(NN)ncnc32)cc1 | 35.5 µM [falling, single point] | –

Row | Compound | AC50 [1] | AC50 [2]
21 | CCOC(=O)C1=C(C)NC(C)=C(C(=O)OCC)C1C(=O)OCC(=O)NC(C)c1ccccc1 (centres undefined) | 2.06 µM [rising, full curve, poor fit] | –
22 | COc1ccc(C2=NN(C(=O)c3cccnc3)C(c3ccccc3)C2)cc1 (centres undefined) | 16.4 µM [rising, partial curve, poor fit] | –
23 | COCCn1c(C)cc(C(=O)COC(=O)c2n[nH]c3ccccc23)c1C | 8.2 µM [falling, partial curve] | –
24 | CN(Cc1ccccc1)S(=O)(=O)c1ccc(N2CCCC2=O)cc1 | 29.1 µM [rising, single point] | –
25 | O=C(CNC(=O)c1ccc(Br)cc1)N/N=C/c1cccnc1 | 11.2 µM [rising, partial curve, poor fit] | –
26 | CCCn1c(N)c(C(=O)CN(C)CC(=O)Nc2ccccc2C(F)(F)F)c(=O)[nH]c1=O | 23.1 µM [rising, single point] | –
27 | COCC(C)n1c(C)cc(C(=O)CSc2nc3ccccc3c(=O)[nH]2)c1C (centres undefined) | 7.94 µM [falling, full curve, poor fit] | –
28 | O=C1NC[C@H](c2ccccc2)OC(=O)[C@@H](Cc2ccc(F)cc2)C/C=C\C[C@H]1CC(=O)N(CCO)Cc1ccccc1 | 18.4 µM [falling, single point] | –
29 | CCOC(=O)c1c(C)[nH]c(C)c1C(=O)COC(=O)c1ccc(Cl)nc1 | 3.26 µM [rising, partial curve, poor fit] | –
30 | CC1(OC(=O)C2CCCC2)C(=O)C=C2C=C(c3ccsc3)N(Cc3ccccc3)C=C2C1=O (centres undefined) | 2.82 µM [rising, partial curve, poor fit] | –
31 | CCNc1nc(N)nc(Oc2ccc(C(=O)OC)cc2)n1 | 5.17 µM [rising, partial curve, poor fit] | –
32 | O=S(=O)(Nc1cccc(-c2ccc3nncn3n2)c1)c1cccc(F)c1 | – | 18.4 µM [falling, partial curve, poor fit]
33 | Cc1ccc([N+](=O)[O-])cc1N=Nc1c(C)[nH]n(C(N)=S)c1=O | – | 5.62 µM [falling, single point]
34 | Cc1onc(-c2ccccc2)c1CNS(=O)(=O)c1ccccc1 | 11.2 µM [falling, partial curve] | –
35 | COC(=O)CN1C(C)=Nc2ccc(C)cc2C1c1ccccc1 (centres undefined) | 7.08 µM [rising, partial curve, poor fit] | –
36 | O=C(N/N=C/c1ccccn1)c1cc(-c2ccncc2)nc2ccccc12 | 29.1 µM [rising, single point] | 20.6 µM [falling, single point]
37 | O=[N+]([O-])c1ccc2nc(SCc3cn4ccccc4n3)[nH]c2c1 | 0.13 µM [rising, full curve] | –
38 | CCOC(=O)C(=O)Nc1ccc(F)cc1 | 6.51 µM [falling, partial curve] | –
39 | CCOC(=O)C1CCN(C(=O)Nc2ccc(OC)c(OC)c2)CC1 | 2.31 µM [rising, partial curve, poor fit] | –
40 | CC1(C)CC(=O)C=C(c2ccc(-c3ccccc3)cc2)C1 | 9.2 µM [rising, partial curve, poor fit] | –

Row | Compound | AC50 [1] | AC50 [2]
41 | CCOc1ccc2nc(N3CCCC(C(=O)NCCCN4CC(C)CC(C)C4)C3)sc2c1 (centres undefined) | 2.82 µM [falling, full curve, poor fit] | –
42 | COc1ccccc1CNC(=O)CCCNC(=O)Cn1cnc2sc(C)c(C)c2c1=O | 6.31 µM [rising, single point] | –
43 | Oc1c(Br)cc(Br)cc1CNc1cnc2ccccc2c1 | 12.6 µM [falling, partial curve] | 35.5 µM [rising, partial curve, poor fit]
44 | O=C(O)c1ccc(NC2=C(N3CCOCC3)C(=O)c3ccccc3C2=O)cc1 | 10.3 µM [falling, partial curve, poor fit] | –
45 | COc1ccc2c(c1)c(CC(=O)OC(C)C(=O)N(C)C)c(C)n2C(=O)c1ccc(Cl)cc1 (centres undefined) | 10 µM [falling, partial curve, poor fit] | –
46 | O=C(/C=C\c1ccco1)Nc1cc([N+](=O)[O-])ccc1F | 8.2 µM [rising, partial curve] | 5.17 µM [falling, full curve]
47 | COc1ccc(-c2cc3nc(C)c(CCC(=O)N4CCN(c5ccccn5)CC4)c(C)n3n2)c(OC)c1 | 10 µM [falling, partial curve] | –
48 | COc1ccc(-c2csc(NC(=O)Cc3ccccc3F)n2)cc1OC | 15.8 µM [falling, single point] | –
49 | COc1ccc(/C=C/C(=O)O)cc1Cl | 7.08 µM [rising, partial curve, poor fit] | –
50 | Cc1cccc(NC(=O)CN(C)CC(=O)NC(c2ccccc2)c2ccccc2)c1C | 1.03 µM [falling, full curve, poor fit] | –
51 | CC(C)(C)NC(=O)CSC(=Nc1cccc(F)c1)NC#N | 17.8 µM [falling, single point] | –
52 | COc1ccc(/C=C/C(=O)O)cc1S(=O)(=O)NC1CCS(=O)(=O)C1 (centres undefined) | 35.5 µM [rising, single point] | –
53 | Cc1cc2cc3c(cc2nc1SCC(=O)OC(C)C)OCO3 | 32.6 µM [rising, single point] | –
54 | COC(=O)CCCC1=CC2=CC(=O)C(C)(OC(=O)c3cccs3)C(=O)C2=CN1CCc1ccccn1 (centres undefined) | 20 µM [rising, partial curve, poor fit] | –
55 | CN1c2ccccc2C(C)(C)C12C=Nc1c(cc(N3CCOCC3)c3ccccc13)O2 (centres undefined) | 7.08 µM [falling, partial curve] | –
56 | CCOC(=O)c1ccc2c(c1)N(CC(=O)N1CCCC1)C(=O)C(C)(C)O2 | 12.6 µM [rising, partial curve, poor fit] | –
57 | CCN(c1ccccc1)c1ncnc2c1cnn2-c1ccccc1 | 3.26 µM [rising, full curve, poor fit] | –
58 | O=C(NCc1ccc2c(c1)OCO2)c1cccc(S(=O)(=O)N2CCOCC2)c1 | 29.1 µM [falling, single point] | –
59 | CS(=O)(=O)c1ccc(-c2sc3ccccc3c2C#CCCO)cc1 | 23.1 µM [rising, single point] | –
60 | NC(=O)CC(NC(=O)Cc1ccc(Br)cc1)c1ccc(N2CCN(c3ccccn3)CC2)c([N+](=O)[O-])c1 (centres undefined) | 6.31 µM [rising, single point] | –

Copied from above, entries 29–30
Row | Compound | AC50 [1] | AC50 [2]
29 | CCOC(=O)c1c(C)[nH]c(C)c1C(=O)COC(=O)c1ccc(Cl)nc1 | 3.26 µM [rising, partial curve, poor fit] | –
30 | CC1(OC(=O)C2CCCC2)C(=O)C=C2C=C(c3ccsc3)N(Cc3ccccc3)C=C2C1=O (centres undefined) | 2.82 µM [rising, partial curve, poor fit] | –
